Results: the supplement of paper PMC3334620
In all, about 33,000 sequences were measured (“E-score (-0.5 to 0.5)”: median about -0.015, highest 2% from about 0.3 on). The list shows a part of the results.

These sequences were tested against T1, Abf1 (UniProt P14164) (assay: PBM E-score (8-mer binding enrichment) (E-score (-0.5 to 0.5)); higher = stronger / more preferred TF binding). Settings: protein concentration: 200 nM; construct: GST-full length.
T1 sequence: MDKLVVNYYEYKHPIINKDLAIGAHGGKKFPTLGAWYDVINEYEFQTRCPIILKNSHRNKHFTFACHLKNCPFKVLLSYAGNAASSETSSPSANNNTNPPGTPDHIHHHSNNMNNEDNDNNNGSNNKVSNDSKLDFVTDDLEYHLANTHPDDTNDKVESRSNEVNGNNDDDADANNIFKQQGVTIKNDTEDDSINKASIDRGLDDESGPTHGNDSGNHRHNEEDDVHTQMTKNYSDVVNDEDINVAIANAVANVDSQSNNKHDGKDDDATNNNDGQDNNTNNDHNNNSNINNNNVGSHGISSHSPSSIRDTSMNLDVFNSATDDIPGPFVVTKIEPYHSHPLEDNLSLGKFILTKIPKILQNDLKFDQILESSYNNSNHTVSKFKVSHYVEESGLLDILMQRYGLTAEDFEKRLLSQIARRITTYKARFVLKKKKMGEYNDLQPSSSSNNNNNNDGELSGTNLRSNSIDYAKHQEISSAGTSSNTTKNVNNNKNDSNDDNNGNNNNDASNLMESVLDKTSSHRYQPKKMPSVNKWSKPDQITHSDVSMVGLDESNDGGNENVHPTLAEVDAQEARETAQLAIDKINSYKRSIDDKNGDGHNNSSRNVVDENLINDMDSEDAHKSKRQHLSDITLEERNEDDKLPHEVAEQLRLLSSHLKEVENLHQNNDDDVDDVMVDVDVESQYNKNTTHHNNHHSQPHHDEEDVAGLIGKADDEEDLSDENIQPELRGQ
In short: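 Yeast transcription factors carrying a GST tag, as full-length proteins or DNA-binding domains, were produced by PURExpress in vitro transcription/translation. About 100-200 nM protein was applied to universal all-10-mer Agilent arrays, double-stranded by primer extension on fresh or once-stripped slides. Bound protein was detected with fluorescent anti-GST, and scans were normalised with masliner. The Universal PBM Analysis Suite gave each ungapped eight-base word, pooled with its reverse complement, an E-score, a modified Wilcoxon-Mann-Whitney statistic.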

| Sequence | PBM E-score |
| --- | --- |
| ACTGCGCG | -0.141 |
| AAATACTG | 0.0702 |
| AGCCGTCG | 0.202 |
| AGGGAAGA | -0.22 |
| CAAGTATA | -0.159 |
| CATACGGG | 0.178 |
| CACGGAGG | 0.05 |
| CCATCGAA | -0.157 |
| CACCAGTG | 0.00641 |
| CAGACTAG | -0.177 |
| CTCAGGAG | -0.109 |
| ACGGCTGC | 0.0827 |
| CAGTTCCC | -0.0699 |
| CAGTTGGG | -0.143 |
| ATAATCGA | 0.0981 |
| AGAGTGGG | -0.0348 |
| ACTTCCGC | -0.0166 |
| CGCTGGAC | -0.186 |
| AGTTTCAC | 0.0678 |
| ACCGTCGC | 0.227 |
| ACGCATAC | -0.0215 |
| CTATTGCA | -0.0633 |

| Sequence | PBM E-score |
| --- | --- |
| ACCTGTGG | -0.0102 |
| ACATGACT | 0.012 |
| CGCAGTCA | -0.184 |
| ATTGAGCA | -0.0473 |
| AAGCTGTA | -0.201 |
| AGAACCCT | -0.2 |
| CTCCTAGA | -0.13 |
| CAAATAGA | 0.0564 |
| GTACAAGA | 0.137 |
| AGCTGTTA | -0.0189 |
| ACCCTCGA | -0.17 |
| AAAATGAC | 0.297 |
| CGGAGGGC | -0.224 |
| CTTCAATC | -0.0733 |
| ACATTAAT | 0.21 |
| CATTGCAC | 0.0878 |
| CAATTCCC | -0.0618 |
| TGCGTCAA | -0.00321 |
| TCCGACGA | 0.392 |
| ATAACCCA | -0.0314 |
| GATTGTCA | 0.268 |
| AACCTAGC | -0.175 |

| Sequence | PBM E-score |
| --- | --- |
| AGAGAGAG | -0.215 |
| CCGTTGGA | -0.136 |
| AGTCCGAG | -0.123 |
| ACAACCAT | 0.0878 |
| AGCTCACC | -0.0163 |
| TACTACTA | 0.11 |
| CCACTGAG | -0.258 |
| GATCCAAA | 0.111 |
| AGCACTGG | -0.168 |
| CGCGATTC | 0.0987 |
| AGATCACC | 0.311 |
| ACCGCATC | 0.16 |
| CGAATCAG | 0.0205 |
| TACCGGGA | -0.103 |
| AGTACAGA | 0.0325 |
| AACATTAA | 0.0328 |
| ACACTCGT | 0.242 |
| CTCATCTA | 0.0696 |
| GAGTTATC | 0.139 |
| CACCTTTA | -0.0514 |
| AGTGTGTA | -0.0237 |
| ATACCTAG | 0.0418 |

Copied from the results shown for reference:

| Sequence | PBM E-score |
| --- | --- |
| CACCAGTG | 0.00641 |
| CAGACTAG | -0.177 |
| CTCAGGAG | -0.109 |
| ACGGCTGC | 0.0827 |

Remaining list, next part:

| Sequence | PBM E-score |
| --- | --- |
| AAGAGGAG | -0.125 |
| CGGCGCCA | -0.044 |
| CCTGACAC | -0.00884 |
| ACGCCCCG | -0.0726 |
| CAGAGCCG | -0.088 |
| GATAGTGC | -0.022 |
| ACTAATGG | 0.00087 |
| CATCCCAC | -0.193 |
| GATTCAAA | -0.15 |
| ACACCACT | -0.123 |
| CCACCCGC | -0.253 |
| GTTTGGGA | 0.133 |
| AACAAGCT | -0.0113 |
| CAAATTCA | -0.107 |
| AATGTCCA | 0.00471 |
| CTAGCTAC | -0.0946 |
| ATGGCAAT | 0.0787 |
| GACCGGGA | -0.0895 |
| GATTTACC | 0.137 |
| GTAATTGA | 0.157 |
